Biological target: α1-AG (α1-acid glycoprotein)
Assay: Binding constant of basic drug to α1-AG by displacement of compound 1 (fluorescence probe method, Klotz formula)
Conditions: 0.1M phosphoric acid buffer pH 7.4; 3×10^-6 M α1-AG; compound 1 as probe
Description: Two different kinds of solutions, one containing α1 -AG and a compound of this invention listed above, the other containing α1 -AG, the compound of this invention, and a drug, are prepared to measure fluorescence intensity at the excitation. fluorescence wavelength, as shown in Table 2. According to the working curve made beforehand, the binding rate of the compound to α1 -AG in each solution is determined and the binding constant of a drug to α1-AG is calculated from the difference between the binding rates in the presence and the absence of a drug.
In the fluorescence cell made of quartz with a plug was placed the buffer solution of 0.1M phosphoric acid (2 ml) which pH is 7.4 and containig 1×10^-4 M α1 -AG, to which 5×10^-4 M aqueous solution of the compound 1 was added by 2 μl each with a microcylinder, which was prepared by dissolving about 3 mg of the compound 1 in 1N hydrochloric acid (1 ml), followed by diluting with water to make the total volume 200 times, and the resulting solution was mixed fully to determine fluorescence intensity at 508 nm (excitation wavelength: 418 nm).
For the buffer solution of 0.1M phosphoric acid (2 ml) which pH is 7.4 and containing 3×10^-6 M α1 -AG, the same procedure as in Example 1 was performed.
As for the other basic drugs shown in Table 3, binding constant were obtained according to the same manner as in Example 11.

## CCN(CC)CC(=O)Nc1c(C)cccc1C [Lidocaine]
  log Kb (binding constant): 5.12

Reference: US5132429A, “Benzotriazole derivatives and fluorescence-emitting reagents thereof” (priority 1988, dated 1992)
